{"sequences": {"note": "Chains of the proteins cited; added tags and fusions are not shown.", "UniProt Q6VVP7, entry or part of it": "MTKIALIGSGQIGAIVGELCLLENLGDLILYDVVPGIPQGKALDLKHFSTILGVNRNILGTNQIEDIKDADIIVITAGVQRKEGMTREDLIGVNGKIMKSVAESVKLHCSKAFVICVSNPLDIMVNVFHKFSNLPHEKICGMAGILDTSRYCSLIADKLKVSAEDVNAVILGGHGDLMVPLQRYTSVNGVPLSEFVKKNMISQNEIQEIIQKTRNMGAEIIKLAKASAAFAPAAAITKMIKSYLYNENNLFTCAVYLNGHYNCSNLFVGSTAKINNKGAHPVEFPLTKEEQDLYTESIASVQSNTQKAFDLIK"}, "source": "paper PMC8355244", "about": "“A fragment-based approach identifies an allosteric pocket that impacts malate dehydrogenase activity” (Communications Biology, 2021)", "molecular_target": "T1, PfMDH (Plasmodium falciparum, UniProt Q6VVP7)", "T1 construct": "The full-length WT PfMDH gene was cloned into pETM-13; made in house; host or cells: E. coli Rosetta 2 (DE3) pLysS", "test": "Thermal shift assay (TSA)", "type": "binding", "conditions": "for TSA melting curve raw signal: triplicate columns; for TSA melting curve raw fluorescence signal: three replicate columns", "protocol": "The TSA experiment was conducted in a BioRad CSX 96 (Biorad). Each reaction consisted of 1 mM of compound (100 mM stock in 100% (v/v) DMSO) and 10 μM PfMDH in 100 mM Na–phosphate buffer pH 7.4, 400 mM NaCl, and 10× Sypro Orange (Invitrogen) for a total volume of 100 μl. Control experiments were performed with 1% (v/v) DMSO. Inflection points were determined using BioRad CFX96™ control software. Generally, a temperature increase of over 1 °C is interpreted as a result of the stabilization of the protein-ligand interaction. On the contrary, a negative shift is considered a destabilization caused by the fragment.", "note": "“And” between values parts separate entries of the source, which are not always exact repeats. Equal values may be shown once. Further values from the same series stand in other lists."}
{"smiles": "Nc1nc(-c2ccc(F)c(F)c2)cs1", "note": "[4DT, 4-(3,4-difluorophenyl) thiazol-2-amine]", "values": [{"measurement": "TSA melting curve raw signal", "setting": "Temperature 25.5", "result": "3310.109 and 3348.575 and 3329.174"}, {"measurement": "TSA melting curve raw signal", "setting": "Temperature 26", "result": "3314.157 and 3354.289 and 3333.547"}, {"measurement": "TSA melting curve raw signal", "setting": "Temperature 26.5", "result": "3318.205 and 3360.004 and 3337.921"}, {"measurement": "TSA melting curve raw signal", "setting": "Temperature 27", "result": "3322.253 and 3365.718 and 3342.294"}, {"measurement": "TSA melting curve raw signal", "setting": "Temperature 27.5", "result": "3326.301 and 3371.433 and 3346.667"}, {"measurement": "TSA melting curve raw signal", "setting": "Temperature 28", "result": "3330.349 and 3377.147 and 3351.041"}, {"measurement": "TSA melting curve raw signal", "setting": "Temperature 44.5", "result": "3878.808 and 4006.869"}, {"measurement": "TSA melting curve raw signal", "setting": "Temperature 45", "result": "3945.234 and 3935.56 and 4074.644"}, {"measurement": "TSA melting curve raw signal", "setting": "Temperature 45.5", "result": "4013.389 and 3998.012 and 4148.379"}, {"measurement": "TSA melting curve raw signal", "setting": "Temperature 46", "result": "4087.29 and 4066.185 and 4228.076"}, {"measurement": "TSA melting curve raw signal", "setting": "Temperature 46.5", "result": "4166.849 and 4140.566 and 4313.761"}, {"measurement": "TSA melting curve raw signal", "setting": "Temperature 47", "result": "4252.237 and 4221.386 and 4404.698"}, {"measurement": "TSA melting curve raw signal", "setting": "Temperature 47.5", "result": "4343.677 and 4308.943 and 4501.15"}, {"measurement": "TSA melting curve raw signal", "setting": "Temperature 48", "result": "4441.151 and 4404.384 and 4603.168"}, {"measurement": "TSA melting curve raw signal", "setting": "Temperature 48.5", "result": "4544.565 and 4507.944 and 4710.806"}, {"measurement": "TSA melting curve raw signal", "setting": "Temperature 49", "result": "4653.77 and 4619.725 and 4823.933"}, {"measurement": "TSA melting curve raw signal", "setting": "Temperature 49.5", "result": "4768.71 and 4739.543 and 4942.399"}, {"measurement": "TSA melting curve raw signal", "setting": "Temperature 50", "result": "4888.706 and 4866.921 and 5065.408"}, {"measurement": "TSA melting curve raw signal", "setting": "Temperature 50.5", "result": "5013.787 and 5000.512 and 5192.658"}, {"measurement": "TSA melting curve raw signal", "setting": "Temperature 51", "result": "5144.887 and 5141.084 and 5324.839"}, {"measurement": "TSA melting curve raw signal", "setting": "Temperature 51.5", "result": "5283.178 and 5289.047 and 5462.277"}, {"measurement": "TSA melting curve raw signal", "setting": "Temperature 52", "result": "5428.491 and 5444.876 and 5605.02"}, {"measurement": "TSA melting curve raw signal", "setting": "Temperature 52.5", "result": "5582.512 and 5609.134 and 5754.355"}, {"measurement": "TSA melting curve raw signal", "setting": "Temperature 53", "result": "5745.97 and 5783.142 and 5910.997"}, {"measurement": "TSA melting curve raw signal", "setting": "Temperature 53.5", "result": "5918.26 and 5965.92 and 6074.314"}, {"measurement": "TSA melting curve raw signal", "setting": "Temperature 54", "result": "6098.955 and 6156.778 and 6243.942"}, {"measurement": "TSA melting curve raw signal", "setting": "Temperature 54.5", "result": "6288.304 and 6354.987 and 6420.63"}, {"measurement": "TSA melting curve raw signal", "setting": "Temperature 55", "result": "6484.198 and 6559.011 and 6602.626"}, {"measurement": "TSA melting curve raw signal", "setting": "Temperature 55.5", "result": "6685.144 and 6766.639 and 6788.956"}, {"measurement": "TSA melting curve raw signal", "setting": "Temperature 56", "result": "6889.937 and 6976.846 and 6978.834"}, {"measurement": "TSA melting curve raw signal", "setting": "Temperature 56.5", "result": "7094.983 and 7186.922 and 7170.125"}, {"measurement": "TSA melting curve raw signal", "setting": "Temperature 57", "result": "7297.654 and 7395.093 and 7360.935"}, {"measurement": "TSA melting curve raw signal", "setting": "Temperature 57.5", "result": "7495.165 and 7599.526 and 7549.74"}, {"measurement": "TSA melting curve raw signal", "setting": "Temperature 58", "result": "7683.198 and 7796.82 and 7732.645"}, {"measurement": "TSA melting curve raw signal", "setting": "Temperature 58.5", "result": "7857.399 and 7983.142 and 7906.06"}, {"measurement": "TSA melting curve raw signal", "setting": "Temperature 59", "result": "8014.791 and 8155.418 and 8067.084"}, {"measurement": "TSA melting curve raw signal", "setting": "Temperature 59.5", "result": "8151.416 and 8309.186 and 8210.668"}, {"measurement": "TSA melting curve raw signal", "setting": "Temperature 60", "result": "8264.099 and 8440.191 and 8333.004"}, {"measurement": "TSA melting curve raw signal", "setting": "Temperature 60.5", "result": "8351.613 and 8546.411 and 8432.064"}, {"measurement": "TSA melting curve raw signal", "setting": "Temperature 61", "result": "8412.863 and 8625.875 and 8506.009"}, {"measurement": "TSA melting curve raw signal", "setting": "Temperature 61.5", "result": "8449.209 and 8678.985 and 8554.815"}, {"measurement": "TSA melting curve raw signal", "setting": "Temperature 62", "result": "8462.896 and 8706.994 and 8580.477"}, {"measurement": "TSA melting curve raw signal", "setting": "Temperature 62.5", "result": "8457.116 and 8712.987 and 8585.559"}, {"measurement": "TSA melting curve raw signal", "setting": "Temperature 63", "result": "8434.912 and 8700.475 and 8573.243"}, {"measurement": "TSA melting curve raw signal", "setting": "Temperature 63.5", "result": "8401.07 and 8674.039 and 8546.913"}, {"measurement": "TSA melting curve raw signal", "setting": "Temperature 64", "result": "8358.615 and 8636.75 and 8509.814"}, {"measurement": "TSA melting curve raw signal", "setting": "Temperature 64.5", "result": "8310.063 and 8592.42 and 8464.811"}, {"measurement": "TSA melting curve raw signal", "setting": "Temperature 65", "result": "8257.814 and 8543.36 and 8414.074"}, {"measurement": "TSA melting curve raw fluorescence signal", "setting": "Temperature 65.5", "result": "8203.884 and 8491.234 and 8359.323"}, {"measurement": "TSA melting curve raw fluorescence signal", "setting": "Temperature 66", "result": "8148.595 and 8436.96 and 8302.463"}, {"measurement": "TSA melting curve raw fluorescence signal", "setting": "Temperature 66.5", "result": "8092.379 and 8381.707 and 8243.933"}, {"measurement": "TSA melting curve raw fluorescence signal", "setting": "Temperature 67", "result": "8035.836 and 8325.947 and 8184.645"}, {"measurement": "TSA melting curve raw fluorescence signal", "setting": "Temperature 67.5", "result": "7979.211 and 8270.06 and 8125.088"}, {"measurement": "TSA melting curve raw fluorescence signal", "setting": "Temperature 68", "result": "7922.502 and 8214.456 and 8065.789"}, {"measurement": "TSA melting curve raw fluorescence signal", "setting": "Temperature 68.5", "result": "7865.726 and 8159.213 and 8006.473"}, {"measurement": "TSA melting curve raw fluorescence signal", "setting": "Temperature 69", "result": "7808.933 and 8104.228 and 7947.546"}, {"measurement": "TSA melting curve raw fluorescence signal", "setting": "Temperature 69.5", "result": "7752.132 and 8048.808 and 7888.309"}, {"measurement": "TSA melting curve raw fluorescence signal", "setting": "Temperature 70", "result": "7695.022 and 7993.407 and 7829.19"}, {"measurement": "TSA melting curve raw fluorescence signal", "setting": "Temperature 70.5", "result": "7637.795 and 7937.714 and 7770.069"}, {"measurement": "TSA melting curve raw fluorescence signal", "setting": "Temperature 71", "result": "7580.973 and 7881.942 and 7711.563"}, {"measurement": "TSA melting curve raw fluorescence signal", "setting": "Temperature 71.5", "result": "7524.79 and 7826.153 and 7653.83"}, {"measurement": "TSA melting curve raw fluorescence signal", "setting": "Temperature 72", "result": "7469.045 and 7771.204 and 7597.586"}, {"measurement": "TSA melting curve raw fluorescence signal", "setting": "Temperature 72.5", "result": "7414.194 and 7716.604 and 7542.506"}, {"measurement": "TSA melting curve raw fluorescence signal", "setting": "Temperature 73", "result": "7360.049 and 7662.598 and 7488.737"}, {"measurement": "TSA melting curve raw fluorescence signal", "setting": "Temperature 90", "result": "5884.201 and 5750.825"}, {"measurement": "TSA melting curve raw fluorescence signal", "setting": "Temperature 90.5", "result": "5583.58 and 5832.95 and 5700.754"}, {"measurement": "TSA melting curve raw fluorescence signal", "setting": "Temperature 91", "result": "5534.239 and 5782.459 and 5651.249"}, {"measurement": "TSA melting curve raw fluorescence signal", "setting": "Temperature 91.5", "result": "5485.437 and 5732.541 and 5602.45"}, {"measurement": "TSA melting curve raw fluorescence signal", "setting": "Temperature 92", "result": "5436.675 and 5683.158 and 5554.509"}, {"measurement": "TSA melting curve raw fluorescence signal", "setting": "Temperature 92.5", "result": "5388.401 and 5634.075 and 5506.779"}, {"measurement": "TSA melting curve raw fluorescence signal", "setting": "Temperature 93", "result": "5340.709 and 5584.743 and 5459.066"}, {"measurement": "TSA melting curve raw fluorescence signal", "setting": "Temperature 93.5", "result": "5293.026 and 5535.668 and 5411.656"}, {"measurement": "TSA melting curve raw fluorescence signal", "setting": "Temperature 94", "result": "5246.665 and 5487.053 and 5364.483"}, {"measurement": "TSA melting curve raw fluorescence signal", "setting": "Temperature 94.5", "result": "5200.592 and 5438.486 and 5317.25"}, {"measurement": "TSA melting curve raw fluorescence signal", "setting": "Temperature 95", "result": "5156.993 and 5390.804 and 5270.513"}]}
